{"source": "PubChem BioAssay AID1224827 – NIAID, 2016", "screen": "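Retest primary hits on a TNF reporter with six siRNAs per gene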 (follow-up of hits)", "system": "RAW264.7 G9 mouse macrophage reporter clone", "knock-down reagent": "single siRNA against mouse genes, 100 nM siRNA", "timing": "siRNA for 2 days, then LPS about 16 h", "challenge": "bacterial lipopolysaccharide (LPS), 10 ng/ml, cells fixed after overnight (about 16 h) stimulation", "read-out": "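TNF promoter reporter red fluorescence in nuclei, background subtracted, normalised per plate and to non-targeting control siRNA, as z-scores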", "reading the numbers": "TNF reporter z-score, mean: higher = stronger Tnf promoter reporter signal; gene median z, three same-vendor siRNAs: higher = stronger Tnf reporter signal for the gene", "call rule": "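Active siRNA: replicate-mean z-score of 2 or more, or -2 or less; no calls for control wells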", "note": "The whole screen tested about 3,800 reagents; below is an unselected part. About 2,200 of all reagents (57%) were called active. 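Active means a strong reporter change in either direction; calls are per siRNA, not per gene; qiagen siRNAs gave weaker effects.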 A number with no mark means an inactive call. The numbers tell different reagents against one gene apart. Further read-outs or replicates are left out here. Reagent sequences are not shown."}
{"gene knocked down": "Cd52", "siRNA no.": 1, "TNF reporter z-score, mean": -0.191, "gene median z, three same-vendor siRNAs": -3.41}
{"gene knocked down": "Cd52", "siRNA no.": 2, "TNF reporter z-score, mean": "-3.6 (active)", "gene median z, three same-vendor siRNAs": -3.41}
{"gene knocked down": "Cd52", "siRNA no.": 3, "TNF reporter z-score, mean": "-3.94 (active)", "gene median z, three same-vendor siRNAs": -3.41}
{"gene knocked down": "Cd52", "siRNA no.": 4, "TNF reporter z-score, mean": 0.53, "gene median z, three same-vendor siRNAs": -1.14}
{"gene knocked down": "Cd52", "siRNA no.": 5, "TNF reporter z-score, mean": -1.18, "gene median z, three same-vendor siRNAs": -1.14}
{"gene knocked down": "Cd52", "siRNA no.": 6, "TNF reporter z-score, mean": -1.74, "gene median z, three same-vendor siRNAs": -1.14}
{"gene knocked down": "Hus1", "siRNA no.": 1, "TNF reporter z-score, mean": -0.792, "gene median z, three same-vendor siRNAs": -3.04}
{"gene knocked down": "Hus1", "siRNA no.": 2, "TNF reporter z-score, mean": "-2.91 (active)", "gene median z, three same-vendor siRNAs": -3.04}
{"gene knocked down": "Hus1", "siRNA no.": 3, "TNF reporter z-score, mean": "-5 (active)", "gene median z, three same-vendor siRNAs": -3.04}
{"gene knocked down": "Hus1", "siRNA no.": 4, "TNF reporter z-score, mean": 1.09, "gene median z, three same-vendor siRNAs": -0.773}
{"gene knocked down": "Hus1", "siRNA no.": 5, "TNF reporter z-score, mean": 0.699, "gene median z, three same-vendor siRNAs": -0.773}
{"gene knocked down": "Hus1", "siRNA no.": 6, "TNF reporter z-score, mean": "-3.16 (active)", "gene median z, three same-vendor siRNAs": -0.773}
{"gene knocked down": "Tex261", "siRNA no.": 1, "TNF reporter z-score, mean": "-2.36 (active)", "gene median z, three same-vendor siRNAs": -4.3}
{"gene knocked down": "Tex261", "siRNA no.": 2, "TNF reporter z-score, mean": "-4.3 (active)", "gene median z, three same-vendor siRNAs": -4.3}
{"gene knocked down": "Tex261", "siRNA no.": 3, "TNF reporter z-score, mean": "-5.36 (active)", "gene median z, three same-vendor siRNAs": -4.3}
{"gene knocked down": "Tex261", "siRNA no.": 4, "TNF reporter z-score, mean": "5.71 (active)", "gene median z, three same-vendor siRNAs": -0.134}
{"gene knocked down": "Tex261", "siRNA no.": 5, "TNF reporter z-score, mean": -1.41, "gene median z, three same-vendor siRNAs": -0.134}
{"gene knocked down": "Tex261", "siRNA no.": 6, "TNF reporter z-score, mean": -0.91, "gene median z, three same-vendor siRNAs": -0.134}
{"gene knocked down": "Or4x6", "siRNA no.": 1, "TNF reporter z-score, mean": "-2.23 (active)", "gene median z, three same-vendor siRNAs": -2.85}
{"gene knocked down": "Or4x6", "siRNA no.": 2, "TNF reporter z-score, mean": "-2.37 (active)", "gene median z, three same-vendor siRNAs": -2.85}
{"gene knocked down": "Or4x6", "siRNA no.": 3, "TNF reporter z-score, mean": "-3.45 (active)", "gene median z, three same-vendor siRNAs": -2.85}
{"gene knocked down": "Or4x6", "siRNA no.": 4, "TNF reporter z-score, mean": "5.17 (active)", "gene median z, three same-vendor siRNAs": 0.827}
{"gene knocked down": "Or4x6", "siRNA no.": 5, "TNF reporter z-score, mean": 1.65, "gene median z, three same-vendor siRNAs": 0.827}
{"gene knocked down": "Or4x6", "siRNA no.": 6, "TNF reporter z-score, mean": "-4.17 (active)", "gene median z, three same-vendor siRNAs": 0.827}
{"gene knocked down": "Usp43", "siRNA no.": 1, "TNF reporter z-score, mean": "4.26 (active)", "gene median z, three same-vendor siRNAs": 1.49}
{"gene knocked down": "Usp43", "siRNA no.": 2, "TNF reporter z-score, mean": 1.49, "gene median z, three same-vendor siRNAs": 1.49}
{"gene knocked down": "Usp43", "siRNA no.": 3, "TNF reporter z-score, mean": "-2.24 (active)", "gene median z, three same-vendor siRNAs": 1.49}
{"gene knocked down": "Kcnj1", "siRNA no.": 1, "TNF reporter z-score, mean": -1.36, "gene median z, three same-vendor siRNAs": -3.3}
{"gene knocked down": "Kcnj1", "siRNA no.": 2, "TNF reporter z-score, mean": "-3.3 (active)", "gene median z, three same-vendor siRNAs": -3.3}
{"gene knocked down": "Kcnj1", "siRNA no.": 3, "TNF reporter z-score, mean": "-4.41 (active)", "gene median z, three same-vendor siRNAs": -3.3}
{"gene knocked down": "Dennd1c", "siRNA no.": 1, "TNF reporter z-score, mean": "4.72 (active)", "gene median z, three same-vendor siRNAs": -3.12}
{"gene knocked down": "Dennd1c", "siRNA no.": 2, "TNF reporter z-score, mean": "-3.12 (active)", "gene median z, three same-vendor siRNAs": -3.12}
{"gene knocked down": "Dennd1c", "siRNA no.": 3, "TNF reporter z-score, mean": "-3.5 (active)", "gene median z, three same-vendor siRNAs": -3.12}
{"gene knocked down": "Dennd1c", "siRNA no.": 4, "TNF reporter z-score, mean": 1.71, "gene median z, three same-vendor siRNAs": -0.965}
{"gene knocked down": "Dennd1c", "siRNA no.": 5, "TNF reporter z-score, mean": -0.774, "gene median z, three same-vendor siRNAs": -0.965}
{"gene knocked down": "Dennd1c", "siRNA no.": 6, "TNF reporter z-score, mean": "-2.72 (active)", "gene median z, three same-vendor siRNAs": -0.965}

3 of these entries in another layout.
| gene knocked down | siRNA no. | TNF reporter z-score, mean | gene median z, three same-vendor siRNAs |
| --- | --- | --- | --- |
| Cd52 | 6 | -1.74 | -1.14 |
| Hus1 | 1 | -0.792 | -3.04 |
| Hus1 | 2 | -2.91 (active) | -3.04 |
